From publication PMC10154249, “Unique progerin C-terminal peptide ameliorates Hutchinson–Gilford progeria syndrome phenotype by rescuing BUBR1” (Nature Aging, 2023)
No constants are given. Whether binding was seen depends on the method and setting. In cells and extracts the contact can be indirect. Here binding means that the protein was enriched with, or labelled near, the bait; the list need not be complete.

Chains of the proteins cited; added tags and fusions are not shown. Lines headed by an entry give the natural chain unless they say otherwise; changes in a name come on top. A line that says so, or that is headed by a name, gives the form on record, which may keep a tag or linker.
Flag-progerin (HEK-293T) (P02545, form named): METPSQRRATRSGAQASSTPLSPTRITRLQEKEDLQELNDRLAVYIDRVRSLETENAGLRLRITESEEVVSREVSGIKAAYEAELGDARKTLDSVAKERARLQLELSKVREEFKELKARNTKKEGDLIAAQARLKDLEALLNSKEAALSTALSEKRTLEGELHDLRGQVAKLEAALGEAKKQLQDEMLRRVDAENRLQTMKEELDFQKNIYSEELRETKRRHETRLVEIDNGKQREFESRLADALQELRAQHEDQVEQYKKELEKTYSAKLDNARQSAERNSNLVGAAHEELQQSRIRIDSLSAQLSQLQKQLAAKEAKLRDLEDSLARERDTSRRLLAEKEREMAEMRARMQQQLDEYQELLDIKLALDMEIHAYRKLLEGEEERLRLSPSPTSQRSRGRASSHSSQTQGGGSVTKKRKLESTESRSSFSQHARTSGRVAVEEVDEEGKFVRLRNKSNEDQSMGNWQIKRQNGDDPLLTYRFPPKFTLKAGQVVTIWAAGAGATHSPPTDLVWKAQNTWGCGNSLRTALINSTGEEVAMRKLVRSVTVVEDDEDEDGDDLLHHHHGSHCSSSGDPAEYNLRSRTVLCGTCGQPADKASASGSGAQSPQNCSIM
UniProt P26641: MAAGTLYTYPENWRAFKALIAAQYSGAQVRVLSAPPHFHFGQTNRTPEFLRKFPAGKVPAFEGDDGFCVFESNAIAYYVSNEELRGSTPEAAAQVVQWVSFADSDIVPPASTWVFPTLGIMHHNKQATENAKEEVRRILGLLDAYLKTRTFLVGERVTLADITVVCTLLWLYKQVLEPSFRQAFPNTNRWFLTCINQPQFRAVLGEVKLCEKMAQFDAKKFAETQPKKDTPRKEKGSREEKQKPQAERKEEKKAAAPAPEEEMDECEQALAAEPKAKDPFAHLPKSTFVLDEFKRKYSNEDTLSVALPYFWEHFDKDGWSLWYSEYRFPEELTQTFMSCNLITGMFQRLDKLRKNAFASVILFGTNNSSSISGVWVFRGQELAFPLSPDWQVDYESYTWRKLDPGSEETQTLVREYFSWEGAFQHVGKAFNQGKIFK
UniProt P26599: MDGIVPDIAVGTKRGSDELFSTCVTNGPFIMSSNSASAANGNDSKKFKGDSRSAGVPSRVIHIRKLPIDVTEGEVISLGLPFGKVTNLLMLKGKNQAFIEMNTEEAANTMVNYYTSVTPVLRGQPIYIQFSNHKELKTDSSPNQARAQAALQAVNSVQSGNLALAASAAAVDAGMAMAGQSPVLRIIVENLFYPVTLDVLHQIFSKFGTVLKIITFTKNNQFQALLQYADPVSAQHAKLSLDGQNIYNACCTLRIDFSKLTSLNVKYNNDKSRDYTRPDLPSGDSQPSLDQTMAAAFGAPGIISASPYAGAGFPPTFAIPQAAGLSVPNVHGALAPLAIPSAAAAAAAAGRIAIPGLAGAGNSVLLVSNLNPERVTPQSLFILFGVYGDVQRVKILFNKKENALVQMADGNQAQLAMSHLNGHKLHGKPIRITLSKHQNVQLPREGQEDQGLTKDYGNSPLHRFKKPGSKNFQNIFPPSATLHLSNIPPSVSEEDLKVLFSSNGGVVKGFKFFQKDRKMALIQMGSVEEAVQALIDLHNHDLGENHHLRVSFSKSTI

Molecular target: Flag-progerin (HEK-293T) (human) (UniProt P02545)
Assay: affinity purification with mass spectrometry; Flag-tagged progerin transfected into HEK-293T cells, captured on anti-Flag affinity gel 16 h at 4 °C, washed with 50 mM Tris-HCl pH 7.4, 150 mM NaCl; SDS–PAGE, LC–MS/MS

binding | Substance
binds | EF1γ (from UniProt P26641 1-437)
binds | PTBP1 (endogenous, HEK-293T) (from UniProt P26599 1-557)
